Assay: LC-MS/MS LM metabololipidomics of human whole blood during coagulation
Conditions: for LM concentration, Coagulation t = 0 h, Avg / LM concentration, Coagulation t = 0.25 h, Avg / LM concentration, Coagulation t = 0.5 h, Avg / LM concentration, Coagulation t = 1 h, Avg / LM concentration, Coagulation t = 3 h, Avg / LM concentration, Coagulation t = 6 h, Avg / LM concentration, Coagulation t = 24 h, Avg: human whole blood, mean of 12 donors

SMILES	LM concentration, Coagulation t = 0 h, Avg	LM concentration, Coagulation t = 0.25 h, Avg	LM concentration, Coagulation t = 0.5 h, Avg	LM concentration, Coagulation t = 1 h, Avg	LM concentration, Coagulation t = 3 h, Avg	LM concentration, Coagulation t = 6 h, Avg	LM concentration, Coagulation t = 24 h, Avg	highest concentrations of SPMs generated within 24 hours of coagulation in blood (healthy donors) [pM]
CC/C=C\C[C@H](O)[C@H](O)/C=C/C=C/C=C\C=C\[C@@H](O)C/C=C\CCC(=O)O [RvD2, Resolvin D2 (7S, 16R, 17S-trihydroxy-docosa-4Z, 8E, 10Z, 12E, 14E, 19Z-hexaenoic acid)]	— ((—) denotes concentrations < 0.1 pg/ml)	— ((—) denotes concentrations < 0.1 pg/ml)	— ((—) denotes concentrations < 0.1 pg/ml)	— ((—) denotes concentrations < 0.1 pg/ml)	— ((—) denotes concentrations < 0.1 pg/ml)	— ((—) denotes concentrations < 0.1 pg/ml)	— ((—) denotes concentrations < 0.1 pg/ml)	
CC/C=C\C/C=C\C[C@H](O)\C=C/C=C/C=C/[C@H](O)C/C=C\CCC(=O)O [Maresin 1, maresin 1 (7R, 14S-dihydroxy-docosa-4Z, 8E, 10E, 12Z, 16Z, 19Z-hexaenoic acid)]	1.4 pg/mL	2.9 pg/mL	2.4 pg/mL	1.6 pg/mL	5.2 pg/mL	7.1 pg/mL	10.3 pg/mL	209
CC/C=C\C[C@H](O)\C=C/C=C/C=C/[C@H](O)C/C=C\C/C=C\CCC(=O)O [PD1, protectin D1 (10R, 17S-dihydroxy-docosa-4Z, 7Z, 11E, 13E, 15Z, 19Z-hexaenoic acid)]	0.8 pg/mL	0.8 pg/mL	0.8 pg/mL	0.8 pg/mL	0.8 pg/mL	1.5 pg/mL	2.2 pg/mL	
CC/C=C\C/C=C\CC(O)/C=C/C=C\C/C=C\C/C=C\CCC(=O)O (stereo not shown) [14-HDHA]	893.1 pg/mL	1185.7 pg/mL	662.2 pg/mL	588.1 pg/mL	2294.6 pg/mL	3295.5 pg/mL	4038.9 pg/mL	
CCCCC[C@H](O)/C=C/[C@@H]1[C@@H](C/C=C\CCCC(=O)O)[C@@H](O)C[C@H]1O [PGF2a, 9α, 11α, 15S-trihydroxy-prosta-5Z, 13E-dienoic acid]	1.1 pg/mL	1.7 pg/mL	7.4 pg/mL	19.5 pg/mL	31.6 pg/mL	44.1 pg/mL	168.4 pg/mL	
CCCCC[C@H](O)/C=C/C=C\C=C\C=C\[C@@H](O)[C@@H](O)CCCC(=O)O [LXA4, lipoxin A4 (5S, 6R, 15S-trihydroxy-eicosa-7E, 9E, 11Z, 13E-tetraenoic acid)]	— ((—) denotes concentrations < 0.1 pg/ml)	— ((—) denotes concentrations < 0.1 pg/ml)	— ((—) denotes concentrations < 0.1 pg/ml)	— ((—) denotes concentrations < 0.1 pg/ml)	— ((—) denotes concentrations < 0.1 pg/ml)	— ((—) denotes concentrations < 0.1 pg/ml)	— ((—) denotes concentrations < 0.1 pg/ml)	
CC/C=C\C[C@H](O)/C=C\C=C\C/C=C/C=C/C=C/C(O)[C@@H](O)CCC(=O)O (stereo in doubt) [RvD4, resolvin D4]	— ((—) denotes concentrations < 0.1 pg/ml)	— ((—) denotes concentrations < 0.1 pg/ml)	— ((—) denotes concentrations < 0.1 pg/ml)	— ((—) denotes concentrations < 0.1 pg/ml)	— ((—) denotes concentrations < 0.1 pg/ml)	— ((—) denotes concentrations < 0.1 pg/ml)	— ((—) denotes concentrations < 0.1 pg/ml)	
CC/C=C\C/C=C\C/C=C\C/C=C\C=C\C(O)C/C=C\CCC(=O)O (stereo not shown) [7-HDHA]	11.5 pg/mL	12.7 pg/mL	13.2 pg/mL	11.9 pg/mL	13.7 pg/mL	17.6 pg/mL	28.8 pg/mL	
CC/C=C\C/C=C\CC(O)/C=C/C=C\C/C=C\CCCC(=O)O (stereo not shown) [12-HEPE]	4196.1 pg/mL	4553.0 pg/mL	4769.4 pg/mL	4728.3 pg/mL	16844.3 pg/mL	21319.3 pg/mL	26591.1 pg/mL	
CC/C=C\C/C=C\C[C@H](O)/C=C/C=C\C=C\[C@@H](O)C/C=C\CCC(=O)O [7S,14S-diHDHA]	2.2 pg/mL	2.6 pg/mL	0.5 pg/mL	1.1 pg/mL	3.5 pg/mL	3.7 pg/mL	9.7 pg/mL	
CCCCC[C@H](O)/C=C/C=C\C/C=C\C=C\[C@@H](O)CCCC(=O)O [5S,15S-diHETE, 5S,15S-dihydroxy-eicosa-6E, 8Z, 11Z, 13E-tetraenoic acid]	2.2 pg/mL	2.4 pg/mL	2.0 pg/mL	3.6 pg/mL	5.1 pg/mL	9.7 pg/mL	20.2 pg/mL	
CCC(O)/C=C/C=C\C/C=C\C/C=C\C/C=C\CCCC(=O)O (stereo not shown) [18-HEPE]	204.5 pg/mL	314.4 pg/mL	236.9 pg/mL	244.5 pg/mL	571.3 pg/mL	700.0 pg/mL	1321.6 pg/mL	
CC/C=C\C/C=C\C/C=C\C/C=C\C/C=C\C=C\C(O)CCC(=O)O (stereo not shown) [4-HDHA]	70.0 pg/mL	59.7 pg/mL	90.4 pg/mL	73.9 pg/mL	108.0 pg/mL	97.7 pg/mL	240.5 pg/mL	
CCCCC[C@H](O)/C=C/[C@H]1C(=O)C[C@H](O)[C@@H]1C/C=C\CCCC(=O)O [PGD2, 11-oxo-9α, 15S-dihydroxy-prosta-5Z, 13E-dien-1-oic acid]	1.5 pg/mL	1.6 pg/mL	6.5 pg/mL	15.6 pg/mL	10.3 pg/mL	12.2 pg/mL	24.1 pg/mL	
CC/C=C\C[C@H](O)/C=C/C=C\C/C=C\C/C=C\C=C\[C@@H](O)CCC(=O)O [RvD6, resolvin D6]	— ((—) denotes concentrations < 0.1 pg/ml)	— ((—) denotes concentrations < 0.1 pg/ml)	— ((—) denotes concentrations < 0.1 pg/ml)	— ((—) denotes concentrations < 0.1 pg/ml)	— ((—) denotes concentrations < 0.1 pg/ml)	— ((—) denotes concentrations < 0.1 pg/ml)	— ((—) denotes concentrations < 0.1 pg/ml)	
